Record: PubChem BioAssay AID1259308 (NCATS, 2017)
The deposit covers about 59,000 reagents; this is a part drawn at random. Over the whole deposit, about 1,510 (2.6%) got an active call. 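Calls use total luciferase alone and ignore viability, so some active siRNAs may act by altering cell number.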 Reagent sequences are not shown.

- Assay: 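Genes whose loss raises luciferase production in HEK293 cells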 (primary screen)
- Cell system: human HEK293 embryonic kidney cells stably expressing firefly luciferase (HEK-CMV-Luc2-Hygro)
- Reagent: single siRNA against human genes, 0.8 pmol siRNA per well
- Timing: 72 h
- Measurement: 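Reporter luminescence and viable-cell signal on separate replicate plates, given as percent of non-targeting control and median/MAD z-scores, plus per-cell luciferase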
- Reading the numbers: total luciferase, z-score and total luciferase, % of control: higher = more reporter protein produced; luciferase per cell, z-score: higher = more reporter output per viable cell; viable cells, % of control: higher = more viable cells
- Active means: 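Active when the median/MAD z-score for overall luciferase is greater than 3; a gene was taken forward for validation with new siRNAs if at least two of its three siRNAs passed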
- Meaning of the calls: active = raised luciferase; inactive = no rise

gene knocked down,PubChem SID,"total luciferase, z-score","total luciferase, % of control","luciferase per cell, z-score","viable cells, % of control",outcome
TLNRD1,SID160746966,-0.142,79.1,-0.3,95.6,inactive
TLNRD1,SID160746967,-1.64,49.2,-2.36,102,inactive
TLNRD1,SID160746968,0.494,91.7,0.224,96.6,inactive
SCAF4,SID160746026,0.403,89.9,-0.0109,101,inactive
SCAF4,SID160746027,-1.14,59.2,-1.24,91.7,inactive
SCAF4,SID160746028,0.262,87.1,-0.202,103,inactive
C9orf152,SID160767321,0.613,94.1,1.12,78.4,inactive
C9orf152,SID160767322,-1.9,44,-0.0174,49.4,inactive
C9orf152,SID160767323,1.93,120,2.63,67.2,inactive
LINC00303,SID160763381,1.77,117,0.75,107,inactive
LINC00303,SID160763382,-0.186,78.2,0.532,75.9,inactive
LINC00303,SID160763383,0.266,87.2,0.339,89.1,inactive
BMPR1B,SID160728412,-0.94,63.2,-1.14,95.4,inactive
BMPR1B,SID160728422,0.326,88.4,0.86,78.7,inactive
BMPR1B,SID160728433,1.16,105,1.2,85.5,inactive
ZAP70,SID160718945,3.9,159,2.74,86.7,active
ZAP70,SID160718946,1.77,117,1.68,84.1,inactive
ZAP70,SID160718947,0.643,94.7,0.333,96.9,inactive
CHMP4B,SID160756815,0.238,86.6,0.44,86.2,inactive
CHMP4B,SID160756816,1.08,103,1.03,87.9,inactive
CHMP4B,SID160756817,3.05,143,0.928,125,active
EGR2,SID160758930,0.122,84.3,0.0346,93.4,inactive
EGR2,SID160758941,0.0582,83,-0.196,97.7,inactive
EGR2,SID160758952,0.115,84.2,-0.323,102,inactive
MSL1,SID160764187,-0.118,79.5,0.913,69.9,inactive
MSL1,SID160764188,-0.884,64.3,-0.663,85.6,inactive
MSL1,SID160764189,-0.998,62,0.125,67.1,inactive
NXPE2,SID160755809,-0.76,66.8,-0.706,89.9,inactive
NXPE2,SID160755810,-0.221,77.5,-0.122,89.4,inactive
NXPE2,SID160755811,-1.57,50.6,0.739,46.6,inactive
EML4,SID160738804,1.03,102,0.507,100,inactive
EML4,SID160738805,-0.706,67.8,-0.124,78.3,inactive
EML4,SID160738806,-0.088,80.1,-0.506,102,inactive
LINC02908,SID160767338,-0.79,66.2,-0.642,87.6,inactive
LINC02908,SID160767339,1.39,110,1.42,84.4,inactive
LINC02908,SID160767340,-1.75,47.1,-1.88,86.4,inactive
NAIP,SID160770841,-0.507,71.8,-0.235,85.4,inactive
NAIP,SID160770843,1.35,109,1.49,81.9,inactive
NAIP,SID160770844,0.692,95.7,0.714,88.6,inactive
NAIP,SID160777768,0.969,101,0.877,89.7,inactive
NAIP,SID160777769,0.714,96.1,0.896,84.8,inactive
NAIP,SID160777770,-1.62,49.6,-1.2,76,inactive
ZNF248,SID160745816,-0.526,71.4,0.129,77.1,inactive
ZNF248,SID160745817,0.754,96.9,0.341,99,inactive
ZNF248,SID160745818,0.0819,83.5,-0.149,97.1,inactive
ADAR,SID160713857,-0.746,67,-0.122,77.4,inactive
ADAR,SID160713868,-0.384,74.3,-0.721,100,inactive
ADAR,SID160713879,-1.28,56.5,-1.9,104,inactive
GCLC,SID160771241,0.861,99,0.531,96.2,inactive
GCLC,SID160771252,-0.044,81,-0.112,93.2,inactive
GCLC,SID160771263,-1.04,61.3,-0.75,83.4,inactive
TMEM117,SID160751887,-0.17,78.5,-0.697,105,inactive
TMEM117,SID160751888,-0.789,66.2,-0.373,81.6,inactive
TMEM117,SID160751889,-1.73,47.4,-2.24,95.5,inactive
ZDHHC19,SID160730592,-0.874,64.5,-1.62,110,inactive
ZDHHC19,SID160757070,-0.524,71.5,-0.793,98.4,inactive
ZDHHC19,SID160757071,-0.91,63.8,-1.02,93.2,inactive

3 entries from above in another layout.
gene knocked down	PubChem SID	total luciferase, z-score	total luciferase, % of control	luciferase per cell, z-score	viable cells, % of control	outcome
NXPE2	SID160755810	-0.221	77.5	-0.122	89.4	inactive
NXPE2	SID160755811	-1.57	50.6	0.739	46.6	inactive
EML4	SID160738804	1.03	102	0.507	100	inactive
